# In PMC7584542:
# No constants are given. Whether binding was seen depends on the method and setting. A result given as binding can be weak or reduced; the word gives no strength.
# B1: Human recombinant lactadherin (LACT) (protein, UniProt Q08431 24-387)
# chain: LDICSKNPCHNGGLCEEISQEVRGDVFPSYTCTCLKGYAGNHCETKCVEPLGLENGNIANSQIAASSVRVTFLGLQHWVPELARLNRAGMVNAWTPSSNDDNPWIQVNLLRRMWVTGVVTQGASRLASHEYLKAFKVAYSLNGHEFDFIHDVNKKHKEFVGNWNKNAVHVNLFETPVEAQYVRLYPTSCHTACTLRFELLGCELNGCANPLGLKNNSIPDKQITASSSYKTWGLHLFSWNPSYARLDKQGNFNAWVAGSYGNDQWLQVDLGSSKEVTGIITQGARNFGSVQFVASYKVAYSNDSANWTEYQDPRTGSSKIFPGNWDNHSHKKNLFETPILARYVRILPVAWHNRIALRLELLGC
# Assays:
# [1] = target: human integrin αvβ3 (human); assay: atomic force microscopy; αvβ3 integrin covalently bound on GA-modified silicon, blocked with BSA; 100 μg/mL LACT in PBS for 1 h; topography in non-contact mode; both purified
# [2] = target: human integrin αvβ3 (human); assay: ToF-SIMS; αvβ3 integrin covalently bound on GA-modified silicon, blocked with BSA; 100 μg/mL LACT in PBS for 1 h; asparagine ion C4H4NO2+ as the signal of LACT; both purified
binder,measurement,setting,value
B1,binding,[1],binds
same,binding,[2],binds
